Drawing on publication PMC9452587, this text covers binding for four molecules.

Protein sequences, listed by entry. Tags and fused reporters are not part of them. Lines headed by an entry give the natural chain unless they say otherwise; changes in a name come on top.
UniProt P01375: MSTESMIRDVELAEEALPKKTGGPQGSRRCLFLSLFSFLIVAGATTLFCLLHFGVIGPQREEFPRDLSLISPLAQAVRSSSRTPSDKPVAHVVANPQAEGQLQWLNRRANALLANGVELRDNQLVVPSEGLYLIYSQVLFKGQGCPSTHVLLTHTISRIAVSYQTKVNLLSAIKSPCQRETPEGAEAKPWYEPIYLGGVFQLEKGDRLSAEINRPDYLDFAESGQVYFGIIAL

Results are given in words; binding and its absence hold for the method and conditions named. In cells and extracts the contact can be indirect. A yes stands for co-enrichment or nearness to the bait. Other partners may have been found. A no says only that the protein was not detected with the bait.

For this test, the target named is Flag-TNFα (UniProt P01375). Nature of the test: affinity purification with mass spectrometry; MEFs treated with Flag-TNFα (150 ng/ml) or PBS for 15 min, NP-40 lysis, anti-Flag beads, on-bead trypsin digestion, Q Exactive HF, MaxQuant against UniProt mouse database; only the target purified.

B1: PPP6R3, a regulatory subunit of PP6 (protein, UniProt Q922D4 1-844)
chain: MFWKFDLHSSSHIDTLLEREDVTLKELMDEEDVLQECKAQNRKLIEFLLKAECLEDLVSFIIEEPPQDMDEKIRYKYPNISCELLTSDVSQMNDRLGEDESLLMKLYSFLLNESPLNPLLASFFSKVLSILISRKPEQIVDFLKKKRDFVDLIIKHIGTSAIMDLLLRLLTCIEPPQPRQDVLNWLNEERIIQRLVEIVHPSQEEDRHSNASQSLCEIVRLSRDQMLQVQNSTEPDPLLATLEKQEIIEQLLSNIFHKEKNESAIVSAIQILLTLLETRRPTFEGHIEICPPGMSHSACSVNKSVLEAIRGRLGSFHELLLEPPKKSVMKTTWGILDPPVGNTRLNVIRLISSLLQTNTSSINGDLMELNSIGVILDMFFKYTWNNFLHTQVEICIALILASPFENAENGTITDQDSTGDNLLLKHLFQKCQLIERILEAWDTNEKKQAEGGRRHGYMGHLTRIANCIVHSTDKGPNSALVQQLIKDLPDEVRERWETFCTNSLGETNKRNTVDLAFSDYQMQQMTSNFIDQFGFNDEKFADQDDIGNVSFDRVSDINFTLNTNESGNIALFEACCKERIQQFDDGGSDEEDIWEEKHIAFTPESQRRSSSGSTDSEESTDSEEEDGAKQDLFESSSANTEDKMEVDLNEPPTWSANFDVPMETTHGAPLDSVGSDVWSTEEPMPTKETGWASFSEFTSSLSTKESLRSNSPVEMETSTESVDPLTPGAAALATQPEAPGSMAMEASSDGEEDAESTDKVTETVMNGGMKETLSLTVDAKTETAVFKSEEEKLSTSQDAACKDAEETPEPAEAKCTAPLTPSSSPEQRTDQPSMPSDPSVNGPV
As for B1, the binding result is reported as “binds”.

B2: Ankrd 52 (protein, UniProt Q8BTI7 1-1076)
chain: MGILSITDQPPLVQAIFSRDVEEVRSLLSQKENINVLDQERRTPLHAAAYVGDVPILQLLLMSGANVNAKDTLWLTPLHRAAASRNEKVLGLLLAHSADVNARDKLWQTPLHVAAANRATKCAEALAPLLSSLNVADRSGRSALHHAVHSGHLETVNLLLNKGASLNVCDKKERQPLHWAAFLGHLEVLKLLVARGADLSCKDRKGYGLLHTAAASGQIEVVKHLLRMGAEIDEPNAFGNTALHIACYLGQDAVAIELVNAGANVNQPNDKGFTPLHVAAVSTNGALCLELLVNNGADVNYQSKEGKSPLHMAAIHGRFTRSQILIQNGSEIDCADKFGNTPLHVAARYGHELLISTLMTNGADTARRGIHDMFPLHLAVLFGFSDCCRKLLSSGQLYSIVSSLSNEHVLSAGFDINTPDSLGRTCLHAAASGGNVECLNLLLSSGADLRRRDKFGRTPLHYAAANGSYQCAVTLVTAGAGVNEADCKGCSPLHYAAASDTYRRAEPHTASSHDAEEDELLKESRRKEAFFCLEFLLDNGADPSLRDRQGYTAVHYAAAYGNRQNLELLLEMSFNCLEDVESTVPVSPLHLAAYNGHCEALKTLAETLVNLDVRDHKGRTALFLATERGSTECVEVLTAHGASALIKERKRKWTPLHAAAASGHTDSLHLLIDSGERADITDVMDAYGQTPLMLAIMNGHVDCVHLLLEKGSTADAADLRGRTALHRGAVTGCEDCLAALLDHDAFVLCRDFKGRTPIHLASACGHTAVLRTLLQAALSTDPLDAGVDYSGYSPMHWASYTGHEDCLELLLEHSPFSYLEGNPFTPLHCAVINNQDSTTEMLLGALGAKIVNSRDAKGRTPLHAAAFADNVSGLRMLLQHQAEVNATDHTGRTALMTAAESGQTAAVEFLLYRGKADLTVLDENKNTALHLACSKGHEKCALMILAETQDLGLINATNSALQMPLHIAARNGLASVVQALLSRGATVLAVDEEGHTPALACAPNKDVADCLALILSTMKPFPPKDAVSPFSFSLLKNCGIAAAKTVGGCGALPHGASCPYSQERHGAIGLDGCYSE
Consider B2, for which the binding entry is “no binding”.

B3: Ankrd44 (protein, UniProt B2RXR6 1-993)
chain: MAVLKLCEQPPLVQAIFSGDPEEIRMLIHKTEDVNALDSEKRTPLHVAAFLGDAEIIELLILSGARVNAKDNMWLTPLHRAVASRSEEAVQVLIKHSADVNARDKNWQTPLHVAAANKAVKCAEVIIPLLSSVNVSDRGGRTALHHAALNGHMEMVNLLLAKGANINAFDKKDRRALHWAAYMGHLDVVALLINHGAEVTCKDKKGYTPLHAAASNGQISVVKHLLNLGVEIDEINVYGNTALHIACYNGQDAVVNELIDYGANVNQPNNSGFTPLHFAAASTHGALCLELLVNNGADVNIQSKDGKSPLHMTAVHGRFTRSQTLIQNGGEIDCVDKDGNTPLHVAARHGHELLINTLITSGADTAKCGIHSMFPLHLAALNAHSDCCRKLLSSGFEIDTPDTFGRTCLHAAAAGGNVECIKLLQSSGADFHKKDKCGRTPLHYAAANCHFHCIKALVTTGANVNETDDWGRTALHYAAASDMDRNKMILGNAHDNSEELERAREVKEKDAALCLEFLLQNDANPSIRDKEGYNSIHYAAAYGHRQCLELLLERTNTGFEESDGGALKSPLHLAAYNGHHQALEVLLQSLVDLDIRDEKGRTALYLAAFKGHTECVEALVNQGASIFVKDNVTKRTPLHASVINGHTLCLRLLLETADNPEVVDVKDAKGQTPLMLAVAYGHIDAVSLLLEKEANVDAVDIVGCTALHRGIMTGHEECVQMLLEQEASILCKDSRGRTPLHYAAARGHATWLNELLQIALSEEDCCLKDNQGYTPLHWACYNGNENCIEVLLEQKCFRKFIGNPFTPLHCAIINGHESCASLLLGAIDPSIVSCRDDKGRTTLHAAAFGDHAECLQLLLRHDAQVNAVDNSGKTALMMAAENGQAGAVDILVNSAQADLTVKDKDLNTPLHLAISKGHEKCALLILDKIQDESLINAKNSALQTPLHIAARNGLKVVVEELLAKGACVLAVDENASRSNGPRSPPGTAVRKEE
As to B3, the binding result is on record as “no binding”.

B4: Ankrd28 (protein, UniProt Q505D1 1-1053)
chain: MAFLKLRDQPSLVQAIFNGDPDEVRALIFKKEDVNFQDNEKRTPLHAAAYLGDAEIIELLILSGARVNAKDSKWLTPLHRAVASCSEEAVQILLKHSADVNARDKNWQTPLHIAAANKAVKCAESLVPLLSNVNVSDRAGRTALHHAAFSGHGEMVKLLLSRGANINAFDKKDRRAIHWAAYMGHIEVVKLLVSHGAEVTCKDKKSYTPLHAAASSGMISVVKYLLDLGVDMNEPNAYGNTPLHVACYNGQDVVVNELIDCGANVNQKNEKGFTPLHFAAASTHGALCLELLVGNGADVNMKSKDGKTPLHMTALHGRFSRSQTIIQSGAVIDCEDKNGNTPLHIAARYGHELLINTLITSGADTAKRGIHGMFPLHLAALSGFSDCCRKLLSSGFDIDTPDDFGRTCLHAAAAGGNLECLNLLLNTGADFNKKDKFGRSPLHYAAANCNYQCLFALVGSGASVNDLDERGCTPLHYAATSDTDGKCLEYLLRNDANPGIRDKQGYNAVHYSAAYGHRLCLQLIASETPLDVLMETSGTDMLSDSDNRATISPLHLAAYHGHHQALEVLVQSLLDLDVRNSSGRTPLDLAAFKGHVECVDVLINQGASILVKDYVLKRTPIHAAATNGHSECLRLLIGNAEPQNAVDIQDGNGQTPLMLSVLNGHTDCVYSLLNKGANVDAKDKWGRTALHRGAVTGHEECVDALLQHGAKCLLRDSRGRTPIHLSAACGHIGVLGALLQSATSVDANPAVVDNHGYTALHWACYNGHETCVELLLEQDVFQKIDGNAFSPLHCAVINDNEGAAEMLIDSLGASIVNATDSKGRTPLHAAAFTDHVECLQLLLSQNAQVNSADSTGKTPLMMAAENGQTNTVEMLVSSASADLTLQDKSKNTALHLACGKGHETSALLILEKITDRNLINATNAALQTPLHVAARNGLTMVVQELLGKGASVLAVDENGYTPALACAPNKDVADCLALILATMMPVSSSSPLTSLTFNAINRYTNTSKTVSFEALPIMRNEASSYCSFNNIGGEQEYLYTDVDELNDSDSETY
Regarding B4, the binding entry is listed as “no binding”.
